{
  "source": "PubChem BioAssay AID1487",
  "about": "(National Center for Advancing Translational Sciences (NCATS), 2009)",
  "assay": "qHTS Assay for Modulators of Lamin A Splicing",
  "conditions": "HeLa LMNA splicing GFP/RFP minigene ratio, 48 h",
  "procedure,_shortened": "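S3 HeLa cells stably expressing lamin A-EGFP splicing minigene plus DsRed2, 600 cells/well, 48 h compound exposure at 37C. Laser-scanning cytometry; analysed as GFP (500-530 nm)/RFP (575-640 nm) total intensity ratio; 0.5% DMSO vehicle.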",
  "key": {"[1]": {"conditions": "measured here: GFP splicing reporter channel"}, "[2]": {"conditions": "measured here: RFP viability control channel"}},
  "note": "The list shows a part of the results. The main result of the screen is listed elsewhere. These columns were measured beside it and carry no call. The list favours compounds with an active or inconclusive main result. The note in brackets gives the kind of curve behind each potency; many fits are weak.",
  "data": [
    {"smiles": "CC(N)C12CC3CC(CC(C3)C1)C2", "note": "(stereo not given)", "values": [
      {"measurement": "AC50", "setting": "[1]", "result": "0.0891 µM [rising, full curve, poor fit]"}
    ]},
    {"smiles": "O=C(Nc1cccnc1)c1ccccc1NS(=O)(=O)c1ccc(F)cc1", "values": [
      {"measurement": "AC50", "setting": "[1]", "result": "2 µM [falling, partial curve, poor fit]"}
    ]},
    {"smiles": "CCCCc1ccc2nc(NC(=O)OC)[nH]c2c1", "values": [
      {"measurement": "AC50", "setting": "[1]", "result": "0.112 µM [falling, full curve]"},
      {"measurement": "AC50", "setting": "[2]", "result": "0.112 µM [falling, full curve]"}
    ]},
    {"smiles": "O=C(Nc1ccccc1N1CCCC1)c1cccc(-c2cc3ccccc3oc2=O)c1", "values": [
      {"measurement": "AC50", "setting": "[1]", "result": "7.94 µM [rising, partial curve, poor fit]"},
      {"measurement": "AC50", "setting": "[2]", "result": "15.8 µM [rising, partial curve]"}
    ]},
    {"smiles": "COc1ccc(/C=C/C(=O)NC(=S)NNC(=O)Cc2cccs2)cc1", "values": [
      {"measurement": "AC50", "setting": "[1]", "result": "1.26 µM [falling, partial curve]"},
      {"measurement": "AC50", "setting": "[2]", "result": "1.26 µM [falling, partial curve]"}
    ]},
    {"smiles": "O=C(/C=C/NNC(=O)c1cccc(Br)c1)c1cccc(Br)c1", "values": [
      {"measurement": "AC50", "setting": "[2]", "result": "22.4 µM [rising, single point]"}
    ]},
    {"smiles": "Cc1ccc2oc(-c3ccco3)cc(=O)c2c1", "values": [
      {"measurement": "AC50", "setting": "[1]", "result": "5.62 µM [rising, single point]"}
    ]},
    {"smiles": "Cc1ccc(C(=O)N2CCCC(C(=O)c3cc(F)ccc3F)C2)s1", "note": "(stereo not given)", "values": [
      {"measurement": "AC50", "setting": "[2]", "result": "28.2 µM [falling, single point]"}
    ]},
    {"smiles": "COc1ccc(S(=O)(=O)N2CCOCC2)cc1NC(=O)CN1CCC(Cc2ccccc2)CC1", "values": [
      {"measurement": "AC50", "setting": "[1]", "result": "11.2 µM [rising, single point]"},
      {"measurement": "AC50", "setting": "[2]", "result": "14.1 µM [rising, partial curve]"}
    ]},
    {"smiles": "COc1ccc(C(=O)Nc2ccc(Cc3ccncc3)cc2)cc1Br", "values": [
      {"measurement": "AC50", "setting": "[1]", "result": "35.5 µM [rising, single point]"},
      {"measurement": "AC50", "setting": "[2]", "result": "12.6 µM [rising, single point]"}
    ]},
    {"smiles": "Cc1ccc(-c2nn(-c3ccccc3)cc2NC(=O)c2ccccc2)cc1", "values": [
      {"measurement": "AC50", "setting": "[1]", "result": "31.6 µM [rising, single point]"},
      {"measurement": "AC50", "setting": "[2]", "result": "31.6 µM [rising, single point]"}
    ]},
    {"smiles": "O=C(NNC(=S)NCc1ccccc1)c1ccc(OC(F)F)cc1", "values": [
      {"measurement": "AC50", "setting": "[1]", "result": "14.1 µM [rising, single point]"},
      {"measurement": "AC50", "setting": "[2]", "result": "35.5 µM [rising, single point]"}
    ]},
    {"smiles": "CN(c1ccccc1)S(=O)(=O)c1cc(C(=O)OCC(=O)N2CCN(C(=O)c3ccco3)CC2)ccc1Cl", "values": [
      {"measurement": "AC50", "setting": "[1]", "result": "0.0355 µM [falling, full curve, poor fit]"}
    ]},
    {"smiles": "Cc1ccc(C)c(N2CCN(S(=O)(=O)c3ccc(C(=O)N(C)C)s3)CC2)c1", "values": [
      {"measurement": "AC50", "setting": "[1]", "result": "0.00316 µM [falling, full curve, poor fit]"}
    ]},
    {"smiles": "CCC(C)(C)C1CCc2c(sc(N)c2C(N)=O)C1", "note": "(stereo not given)", "values": [
      {"measurement": "AC50", "setting": "[2]", "result": "25.1 µM [rising, single point]"}
    ]},
    {"smiles": "CCC(=O)N1CCN(c2nc3ccccc3s2)CC1", "values": [
      {"measurement": "AC50", "setting": "[1]", "result": "12.6 µM [rising, partial curve, poor fit]"},
      {"measurement": "AC50", "setting": "[2]", "result": "14.1 µM [rising, partial curve]"}
    ]},
    {"smiles": "Nc1nc2ccc(C(=O)NC3CCCCC3)cc2s1", "values": [
      {"measurement": "AC50", "setting": "[2]", "result": "10 µM [rising, partial curve, poor fit]"}
    ]},
    {"smiles": "Clc1ccc(CN(Cc2ccccc2)C(c2cccs2)c2nnnn2C2CCCC2)cc1", "note": "(stereo not given)", "values": [
      {"measurement": "AC50", "setting": "[1]", "result": "14.1 µM [rising, partial curve]"},
      {"measurement": "AC50", "setting": "[2]", "result": "31.6 µM [rising, single point]"}
    ]},
    {"smiles": "COC(=O)c1c(NC(=O)CSc2nnc(-c3ccco3)n2Cc2ccccc2)sc(C)c1C", "values": [
      {"measurement": "AC50", "setting": "[1]", "result": "20 µM [rising, single point]"}
    ]},
    {"smiles": "COc1ccc(-c2nsc3c(N4CCN(C(=O)c5ccco5)CC4)ncnc23)cc1", "values": [
      {"measurement": "AC50", "setting": "[1]", "result": "14.1 µM [falling, single point]"},
      {"measurement": "AC50", "setting": "[2]", "result": "15.8 µM [falling, single point]"}
    ]},
    {"smiles": "CCCOc1ccc(CC(=O)NNC(=S)Nc2ccccc2)cc1Br", "values": [
      {"measurement": "AC50", "setting": "[1]", "result": "35.5 µM [rising, single point]"},
      {"measurement": "AC50", "setting": "[2]", "result": "35.5 µM [rising, single point]"}
    ]},
    {"smiles": "CC(=O)c1cccc(NC(=O)CN2C(=O)CC(c3ccc(C)cc3C)=Nc3ccccc32)c1", "values": [
      {"measurement": "AC50", "setting": "[1]", "result": "0.282 µM [rising, full curve]"},
      {"measurement": "AC50", "setting": "[2]", "result": "0.447 µM [rising, full curve]"}
    ]},
    {"smiles": "Cc1nn(C(=O)CCCn2cc([N+](=O)[O-])cn2)c(C)c1Cl", "values": [
      {"measurement": "AC50", "setting": "[1]", "result": "0.891 µM [rising, full curve, poor fit]"}
    ]},
    {"smiles": "CCCCN(CC)CCCNC(=O)c1cn(CC)c2ccc(S(=O)(=O)N3CCc4ccccc4C3)cc2c1=O", "values": [
      {"measurement": "AC50", "setting": "[2]", "result": "0.316 µM [rising, full curve, poor fit]"}
    ]},
    {"smiles": "COc1cccc(-c2nnc(NC(=O)c3ccc4ncsc4c3)o2)c1", "values": [
      {"measurement": "AC50", "setting": "[2]", "result": "8.91 µM [rising, partial curve]"}
    ]},
    {"smiles": "CCOC(=O)CNC(=S)n1cnc(N)n1", "values": [
      {"measurement": "AC50", "setting": "[2]", "result": "35.5 µM [falling, single point]"}
    ]},
    {"smiles": "CC(=O)Nc1cc[n+](C(C)C(=O)c2ccc(Br)cc2)cc1", "note": "(stereo not given)", "values": [
      {"measurement": "AC50", "setting": "[2]", "result": "12.6 µM [falling, single point]"}
    ]},
    {"smiles": "O=C(Nc1ccc(Br)cc1)Nc1ccccc1Cl", "values": [
      {"measurement": "AC50", "setting": "[2]", "result": "0.224 µM [falling, full curve]"}
    ]},
    {"smiles": "CCCC1N=C2c3ccccc3N=C(SCC(=O)NCCc3ccc(Cl)cc3)N2C1=O", "note": "(stereo not given)", "values": [
      {"measurement": "AC50", "setting": "[2]", "result": "31.6 µM [falling, single point]"}
    ]},
    {"smiles": "CC[N+]1=C(C)C(C)(C)c2cc(C)ccc21", "values": [
      {"measurement": "AC50", "setting": "[1]", "result": "20 µM [falling, partial curve, poor fit]"},
      {"measurement": "AC50", "setting": "[2]", "result": "14.1 µM [rising, single point]"}
    ]},
    {"smiles": "COC(=O)C1=C(C)N(CCc2ccccc2)C(=O)/C1=C\\c1ccco1", "values": [
      {"measurement": "AC50", "setting": "[2]", "result": "12.6 µM [rising, single point]"}
    ]},
    {"smiles": "COc1cc(/C=N/NC(=O)CCn2c3ccccc3c3ccccc32)ccc1O", "values": [
      {"measurement": "AC50", "setting": "[2]", "result": "12.6 µM [rising, single point]"}
    ]},
    {"smiles": "O=C(O)c1ccc(/C=N/NC(=O)c2cc(-c3ccc4c5c(cccc35)CC4)n[nH]2)cc1", "values": [
      {"measurement": "AC50", "setting": "[2]", "result": "35.5 µM [rising, single point]"}
    ]},
    {"smiles": "CCOC(=O)C(=Cc1ccccc1OC)C(=O)OCC", "values": [
      {"measurement": "AC50", "setting": "[2]", "result": "35.5 µM [falling, single point]"}
    ]},
    {"smiles": "CCCOC(=O)CSc1nnc(-c2ccccc2)o1", "values": [
      {"measurement": "AC50", "setting": "[1]", "result": "0.0251 µM [falling, full curve, poor fit]"},
      {"measurement": "AC50", "setting": "[2]", "result": "0.01 µM [falling, full curve]"}
    ]},
    {"smiles": "Cc1ccccc1N1CC(c2nnc(NC(=O)c3ccco3)s2)CC1=O", "note": "(stereo not given)", "values": [
      {"measurement": "AC50", "setting": "[1]", "result": "0.316 µM [falling, full curve, poor fit]"}
    ]}
  ]
}
